In article PMC8732813 one finds binding data, which are given here for two substances.

Sequences of proteins named here, by UniProt entry; tags and fusion partners are left off. A change or cut given only in a name is not applied to a line headed by its entry.
UniProt Q96D31: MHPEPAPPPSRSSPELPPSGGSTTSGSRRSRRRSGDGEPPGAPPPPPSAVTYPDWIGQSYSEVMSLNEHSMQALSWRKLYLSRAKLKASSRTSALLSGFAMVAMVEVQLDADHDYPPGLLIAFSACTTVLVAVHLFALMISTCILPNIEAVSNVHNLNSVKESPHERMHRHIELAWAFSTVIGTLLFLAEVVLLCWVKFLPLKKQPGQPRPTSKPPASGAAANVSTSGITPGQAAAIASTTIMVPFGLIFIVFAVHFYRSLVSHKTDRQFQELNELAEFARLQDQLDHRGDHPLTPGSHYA
UniProt P48995: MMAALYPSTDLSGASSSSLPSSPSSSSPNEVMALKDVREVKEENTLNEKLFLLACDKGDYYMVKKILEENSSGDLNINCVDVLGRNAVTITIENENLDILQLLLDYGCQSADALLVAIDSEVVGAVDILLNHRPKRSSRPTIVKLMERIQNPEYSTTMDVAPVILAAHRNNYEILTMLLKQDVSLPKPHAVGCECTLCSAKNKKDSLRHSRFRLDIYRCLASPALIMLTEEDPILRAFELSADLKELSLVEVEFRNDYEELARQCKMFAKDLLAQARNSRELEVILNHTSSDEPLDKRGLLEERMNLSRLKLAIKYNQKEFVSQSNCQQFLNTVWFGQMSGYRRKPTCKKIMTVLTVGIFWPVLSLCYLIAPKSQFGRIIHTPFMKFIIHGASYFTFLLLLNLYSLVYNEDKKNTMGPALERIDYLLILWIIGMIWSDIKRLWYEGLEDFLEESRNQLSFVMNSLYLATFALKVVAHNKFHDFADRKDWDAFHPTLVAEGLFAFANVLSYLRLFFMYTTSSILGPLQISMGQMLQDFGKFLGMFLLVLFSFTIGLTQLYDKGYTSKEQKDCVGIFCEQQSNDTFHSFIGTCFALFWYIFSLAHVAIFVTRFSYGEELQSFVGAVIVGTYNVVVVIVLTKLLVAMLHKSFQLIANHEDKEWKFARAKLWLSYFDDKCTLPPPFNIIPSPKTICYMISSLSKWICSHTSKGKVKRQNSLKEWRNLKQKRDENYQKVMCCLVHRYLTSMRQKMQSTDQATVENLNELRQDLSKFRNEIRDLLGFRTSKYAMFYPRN

These are yes or no findings as the source states them, for the method shown. Binding seen in cells or lysates may run through a third protein. Some results given as binding are weak or reduced against the parent protein; the word gives no strength.

The target of assay [1] is Orai1α (long variant of Orai1), endogenous in HeLa cells (human (endogenous in HeLa)) (UniProt Q96D31). Briefly: co-IP; native HeLa cells in Ca2+-free medium (300 µM EGTA) or 1 mM CaCl2, with or without thapsigargin; Orai1α immunoprecipitated with anti-Orai1 N-terminal antibody (amino acids 2-61), then Orai1β from the supernatant with anti-Orai1 C-terminal antibody (amino acids 288-301); Western blot with anti-TRPC1 antibody (Fig. S5).

Assay [2] addresses TRPC1, endogenous in HeLa cells (human (endogenous in HeLa)) (UniProt P48995). Briefly: co-IP; native HeLa cells, resting or 2 µM thapsigargin for 1 min, 1 mM extracellular Ca2+; NP-40 lysates immunoprecipitated with anti-TRPC1 or anti-STIM1 antibody and protein A-agarose overnight at 4 °C; immunoprecipitates de-glycosylated with PNGase F; Western blot with anti-Orai1 antibody.

On to “TRPC1, endogenous in HeLa cells (from UniProt P48995 1-793)”, for which, in assay [1], the binding result is listed as “binds”. With “Orai1α (long variant of Orai1), endogenous in HeLa cells (from UniProt Q96D31 1-301)”, the binding entry in assay [2] is “binds”.
